Test system: mAb against AZN (35D1D2)
Assay: indirect competitive ELISA
Format: binding, mouse
Settings: ic-ELISA; coating antigen 0.23 and mAb 0.38 µg/mL

O=C(CCCN1CCC(O)(c2ccc(Cl)cc2)CC1)c1ccc(F)cc1 [HAL, haloperidol]
IC50: ˃1000 ng/mL

— PMC9720522 (Food Chemistry: X, 2022)
